From the supplement of paper PMC7666118
The other results are listed elsewhere or left out.

Chains of the proteins cited; added tags and fusions are not shown. Lines headed by an entry give the natural chain unless they say otherwise; changes in a name come on top.
UniProt Q96GQ5: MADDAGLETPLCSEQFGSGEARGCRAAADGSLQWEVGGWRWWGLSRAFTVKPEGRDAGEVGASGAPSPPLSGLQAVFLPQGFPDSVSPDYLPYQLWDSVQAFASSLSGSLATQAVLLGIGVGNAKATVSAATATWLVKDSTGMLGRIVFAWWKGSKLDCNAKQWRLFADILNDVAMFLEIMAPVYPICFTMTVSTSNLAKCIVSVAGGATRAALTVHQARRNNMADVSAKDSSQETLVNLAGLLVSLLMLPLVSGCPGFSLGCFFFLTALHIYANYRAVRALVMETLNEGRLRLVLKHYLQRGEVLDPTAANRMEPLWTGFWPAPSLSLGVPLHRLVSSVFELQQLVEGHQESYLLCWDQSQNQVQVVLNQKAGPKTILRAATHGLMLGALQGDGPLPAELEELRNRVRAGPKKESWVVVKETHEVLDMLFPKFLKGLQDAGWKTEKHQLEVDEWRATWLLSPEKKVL
UniProt O00512: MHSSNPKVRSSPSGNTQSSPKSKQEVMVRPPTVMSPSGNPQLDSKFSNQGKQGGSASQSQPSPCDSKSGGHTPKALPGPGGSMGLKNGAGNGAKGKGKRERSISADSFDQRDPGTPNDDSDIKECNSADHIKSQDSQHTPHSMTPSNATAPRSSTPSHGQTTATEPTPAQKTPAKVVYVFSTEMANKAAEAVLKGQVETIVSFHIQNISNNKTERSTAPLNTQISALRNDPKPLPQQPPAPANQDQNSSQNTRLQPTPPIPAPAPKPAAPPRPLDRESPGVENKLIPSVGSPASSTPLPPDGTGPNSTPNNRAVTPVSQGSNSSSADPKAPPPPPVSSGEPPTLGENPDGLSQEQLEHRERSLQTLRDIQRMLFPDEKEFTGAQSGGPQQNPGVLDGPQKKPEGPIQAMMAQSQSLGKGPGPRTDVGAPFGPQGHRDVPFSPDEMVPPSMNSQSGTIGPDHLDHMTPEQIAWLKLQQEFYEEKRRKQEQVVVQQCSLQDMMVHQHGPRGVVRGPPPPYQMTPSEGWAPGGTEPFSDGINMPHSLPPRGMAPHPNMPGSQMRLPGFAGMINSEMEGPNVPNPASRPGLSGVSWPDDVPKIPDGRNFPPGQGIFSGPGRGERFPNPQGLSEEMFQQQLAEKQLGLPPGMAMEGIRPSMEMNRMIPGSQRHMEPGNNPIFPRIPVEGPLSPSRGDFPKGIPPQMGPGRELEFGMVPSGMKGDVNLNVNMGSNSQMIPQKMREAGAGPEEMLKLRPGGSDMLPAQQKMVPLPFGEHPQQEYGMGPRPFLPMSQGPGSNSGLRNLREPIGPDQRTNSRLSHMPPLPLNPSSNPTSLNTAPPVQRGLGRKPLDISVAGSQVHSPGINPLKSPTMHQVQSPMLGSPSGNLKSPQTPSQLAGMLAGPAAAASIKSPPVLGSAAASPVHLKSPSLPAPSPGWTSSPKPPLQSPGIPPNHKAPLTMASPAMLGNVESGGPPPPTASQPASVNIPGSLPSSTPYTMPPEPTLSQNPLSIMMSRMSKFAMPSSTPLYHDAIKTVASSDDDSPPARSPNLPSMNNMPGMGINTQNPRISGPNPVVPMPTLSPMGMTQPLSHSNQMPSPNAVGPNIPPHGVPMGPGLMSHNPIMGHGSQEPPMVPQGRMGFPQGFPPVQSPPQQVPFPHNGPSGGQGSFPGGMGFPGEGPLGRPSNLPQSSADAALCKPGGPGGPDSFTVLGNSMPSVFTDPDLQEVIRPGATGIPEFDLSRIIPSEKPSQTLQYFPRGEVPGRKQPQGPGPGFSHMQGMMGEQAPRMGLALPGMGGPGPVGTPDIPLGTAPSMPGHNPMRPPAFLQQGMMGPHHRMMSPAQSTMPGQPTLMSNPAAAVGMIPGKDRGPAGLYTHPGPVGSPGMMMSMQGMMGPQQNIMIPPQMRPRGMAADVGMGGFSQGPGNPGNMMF
UniProt Q99700, whole entry: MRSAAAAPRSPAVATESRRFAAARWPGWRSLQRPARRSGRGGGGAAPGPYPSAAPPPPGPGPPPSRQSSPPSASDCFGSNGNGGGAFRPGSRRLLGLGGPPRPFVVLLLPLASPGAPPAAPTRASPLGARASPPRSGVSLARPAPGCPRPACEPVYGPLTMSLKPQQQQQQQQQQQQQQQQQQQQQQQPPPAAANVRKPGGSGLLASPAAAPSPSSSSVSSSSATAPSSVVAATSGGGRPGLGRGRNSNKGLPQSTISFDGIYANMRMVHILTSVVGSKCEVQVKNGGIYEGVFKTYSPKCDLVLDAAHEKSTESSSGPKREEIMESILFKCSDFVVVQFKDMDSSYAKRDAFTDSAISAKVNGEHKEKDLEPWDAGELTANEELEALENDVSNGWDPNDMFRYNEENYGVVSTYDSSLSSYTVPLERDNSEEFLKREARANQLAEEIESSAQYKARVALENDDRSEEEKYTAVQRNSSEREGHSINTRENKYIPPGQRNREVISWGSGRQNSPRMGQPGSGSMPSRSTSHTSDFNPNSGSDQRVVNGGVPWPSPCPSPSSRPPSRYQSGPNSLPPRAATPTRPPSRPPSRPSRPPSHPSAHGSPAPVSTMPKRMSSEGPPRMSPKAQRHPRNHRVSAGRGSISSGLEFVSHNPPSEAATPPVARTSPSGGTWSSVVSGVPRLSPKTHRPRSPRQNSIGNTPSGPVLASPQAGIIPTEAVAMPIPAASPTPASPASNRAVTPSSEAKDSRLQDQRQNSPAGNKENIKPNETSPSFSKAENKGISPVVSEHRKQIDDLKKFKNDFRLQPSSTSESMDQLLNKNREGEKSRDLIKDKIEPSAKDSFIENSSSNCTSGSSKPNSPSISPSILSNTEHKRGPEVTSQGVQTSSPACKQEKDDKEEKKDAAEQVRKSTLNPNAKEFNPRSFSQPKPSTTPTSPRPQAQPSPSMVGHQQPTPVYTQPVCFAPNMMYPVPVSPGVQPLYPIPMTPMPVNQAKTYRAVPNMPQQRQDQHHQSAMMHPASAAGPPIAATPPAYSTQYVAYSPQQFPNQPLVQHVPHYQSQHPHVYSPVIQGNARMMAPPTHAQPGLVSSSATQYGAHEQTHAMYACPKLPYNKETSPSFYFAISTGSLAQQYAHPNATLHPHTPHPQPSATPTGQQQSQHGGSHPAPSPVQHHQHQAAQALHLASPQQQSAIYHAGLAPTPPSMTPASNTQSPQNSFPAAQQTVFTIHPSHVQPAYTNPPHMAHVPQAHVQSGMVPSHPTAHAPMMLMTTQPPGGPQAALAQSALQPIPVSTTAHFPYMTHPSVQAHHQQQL
UniProt P56378: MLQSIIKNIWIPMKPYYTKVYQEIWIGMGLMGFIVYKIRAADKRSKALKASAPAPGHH
UniProt P43251: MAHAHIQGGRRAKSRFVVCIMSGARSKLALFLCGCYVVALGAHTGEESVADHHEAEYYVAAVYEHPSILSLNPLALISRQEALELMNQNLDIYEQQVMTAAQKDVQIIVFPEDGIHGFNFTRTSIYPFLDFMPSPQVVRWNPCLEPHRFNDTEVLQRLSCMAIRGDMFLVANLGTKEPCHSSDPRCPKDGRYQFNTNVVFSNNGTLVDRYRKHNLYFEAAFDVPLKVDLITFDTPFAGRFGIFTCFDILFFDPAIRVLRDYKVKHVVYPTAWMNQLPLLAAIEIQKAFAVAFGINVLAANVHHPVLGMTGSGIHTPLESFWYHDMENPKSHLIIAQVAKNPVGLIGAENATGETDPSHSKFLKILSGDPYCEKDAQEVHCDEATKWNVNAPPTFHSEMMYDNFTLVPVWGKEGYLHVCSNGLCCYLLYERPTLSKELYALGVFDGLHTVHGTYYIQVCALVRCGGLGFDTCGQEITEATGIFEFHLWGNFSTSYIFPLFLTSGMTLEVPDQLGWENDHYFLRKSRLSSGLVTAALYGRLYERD
UniProt Q6IAA8, whole entry: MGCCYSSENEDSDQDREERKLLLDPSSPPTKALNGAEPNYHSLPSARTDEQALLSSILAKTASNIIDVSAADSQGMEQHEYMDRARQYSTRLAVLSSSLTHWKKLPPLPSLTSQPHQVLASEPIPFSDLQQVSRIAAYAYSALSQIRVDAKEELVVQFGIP
UniProt Q9BQ61: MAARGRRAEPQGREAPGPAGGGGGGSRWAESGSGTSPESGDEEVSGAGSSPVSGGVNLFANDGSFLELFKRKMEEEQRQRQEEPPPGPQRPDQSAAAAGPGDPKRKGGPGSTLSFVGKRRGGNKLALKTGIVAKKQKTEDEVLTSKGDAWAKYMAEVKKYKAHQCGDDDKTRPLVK
UniProt Q8TE02: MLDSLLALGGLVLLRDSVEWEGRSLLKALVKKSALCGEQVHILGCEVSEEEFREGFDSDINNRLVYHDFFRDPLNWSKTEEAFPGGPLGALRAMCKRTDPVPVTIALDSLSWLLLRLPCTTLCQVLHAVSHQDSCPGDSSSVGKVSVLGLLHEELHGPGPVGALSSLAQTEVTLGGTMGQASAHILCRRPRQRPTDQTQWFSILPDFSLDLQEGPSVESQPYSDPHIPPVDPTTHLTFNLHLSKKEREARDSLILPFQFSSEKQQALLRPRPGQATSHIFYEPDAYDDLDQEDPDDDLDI
UniProt Q9HBH7: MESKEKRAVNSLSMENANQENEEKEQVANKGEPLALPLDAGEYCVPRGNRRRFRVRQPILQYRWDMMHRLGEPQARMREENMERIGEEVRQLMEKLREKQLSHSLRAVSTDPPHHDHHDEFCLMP
UniProt Q14457, whole entry: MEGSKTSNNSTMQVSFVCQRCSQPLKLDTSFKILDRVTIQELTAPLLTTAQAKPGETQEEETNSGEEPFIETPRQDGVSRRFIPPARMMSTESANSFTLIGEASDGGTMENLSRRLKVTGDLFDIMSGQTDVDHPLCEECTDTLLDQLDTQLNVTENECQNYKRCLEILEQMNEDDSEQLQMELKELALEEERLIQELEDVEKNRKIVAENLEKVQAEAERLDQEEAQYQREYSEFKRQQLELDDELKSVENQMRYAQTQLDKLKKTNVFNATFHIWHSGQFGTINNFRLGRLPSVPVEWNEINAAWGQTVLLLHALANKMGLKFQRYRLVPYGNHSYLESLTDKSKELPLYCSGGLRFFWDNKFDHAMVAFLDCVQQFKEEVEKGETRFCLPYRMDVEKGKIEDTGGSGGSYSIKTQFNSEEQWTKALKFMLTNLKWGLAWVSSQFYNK
UniProt B4E0S5, whole entry, looked up: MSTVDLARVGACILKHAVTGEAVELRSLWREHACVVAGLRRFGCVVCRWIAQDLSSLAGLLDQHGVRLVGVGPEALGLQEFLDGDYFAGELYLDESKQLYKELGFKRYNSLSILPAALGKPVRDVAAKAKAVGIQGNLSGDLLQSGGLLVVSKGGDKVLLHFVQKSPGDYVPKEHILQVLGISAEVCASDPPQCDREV
UniProt Q9BQA9: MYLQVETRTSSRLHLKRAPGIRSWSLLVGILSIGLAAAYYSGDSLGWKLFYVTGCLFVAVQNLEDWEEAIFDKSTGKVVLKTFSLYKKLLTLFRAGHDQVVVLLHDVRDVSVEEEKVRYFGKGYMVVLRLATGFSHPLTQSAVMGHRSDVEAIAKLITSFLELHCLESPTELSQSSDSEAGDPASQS
UniProt O60512: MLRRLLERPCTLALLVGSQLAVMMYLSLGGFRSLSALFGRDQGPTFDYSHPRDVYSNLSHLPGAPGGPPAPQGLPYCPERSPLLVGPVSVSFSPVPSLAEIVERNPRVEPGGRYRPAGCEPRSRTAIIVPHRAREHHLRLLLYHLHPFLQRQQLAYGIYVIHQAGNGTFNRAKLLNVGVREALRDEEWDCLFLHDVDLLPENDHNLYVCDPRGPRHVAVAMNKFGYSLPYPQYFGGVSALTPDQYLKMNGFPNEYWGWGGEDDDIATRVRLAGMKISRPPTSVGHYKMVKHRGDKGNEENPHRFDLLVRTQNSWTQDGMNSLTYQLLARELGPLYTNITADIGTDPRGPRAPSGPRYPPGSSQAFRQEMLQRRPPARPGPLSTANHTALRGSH
UniProt Q2VPK5: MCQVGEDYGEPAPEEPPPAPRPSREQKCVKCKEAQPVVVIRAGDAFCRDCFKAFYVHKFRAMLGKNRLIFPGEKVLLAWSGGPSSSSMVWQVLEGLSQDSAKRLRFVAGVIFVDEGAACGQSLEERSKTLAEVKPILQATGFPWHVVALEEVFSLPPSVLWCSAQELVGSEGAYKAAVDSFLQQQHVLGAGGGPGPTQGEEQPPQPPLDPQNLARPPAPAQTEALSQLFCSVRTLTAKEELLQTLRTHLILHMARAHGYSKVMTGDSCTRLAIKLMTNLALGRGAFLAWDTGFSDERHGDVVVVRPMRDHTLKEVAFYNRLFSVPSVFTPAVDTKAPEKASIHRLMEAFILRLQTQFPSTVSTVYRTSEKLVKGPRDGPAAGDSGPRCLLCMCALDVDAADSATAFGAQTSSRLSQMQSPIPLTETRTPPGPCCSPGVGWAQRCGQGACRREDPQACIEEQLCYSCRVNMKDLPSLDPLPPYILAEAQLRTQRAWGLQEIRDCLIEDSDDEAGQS
UniProt Q16864, whole entry: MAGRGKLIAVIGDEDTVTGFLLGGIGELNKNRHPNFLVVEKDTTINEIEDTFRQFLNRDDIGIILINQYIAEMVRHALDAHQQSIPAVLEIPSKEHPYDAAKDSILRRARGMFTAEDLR
UniProt Q8TCD1: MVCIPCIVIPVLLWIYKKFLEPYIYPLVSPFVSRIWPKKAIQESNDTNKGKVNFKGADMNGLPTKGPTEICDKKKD

Each target was assayed with COc1ccc(Cn2ccc3cc(C)c(C(=O)NO)cc32)cc1 (assay: dose-dependent thermal stabilisation call (2D-TPP, DLPTP, 10% FDR) (binary (1 = stabilised)); higher = stabilised by the compound). Conditions: system: HL-60 intact cells; concentration range 0.04-10 µM.
Description: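 2D thermal proteome profiling in intact HL-60 cells treated with BRD-3811 (0, 0.04, 0.29, 2, 10 uM) for 90 min at 37 C, then heated 3 min at one of 12 temperatures (42-63.9 C). Soluble protein was quantified by TMT10 MS. The value is the DLPTP call of the paper: dose-dependent thermal stabilisation over all temperatures at 10% FDR (F-test of a dose-response against a flat model); one experiment, one call per tested protein.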
C16ORF58 (UniProt Q96GQ5) was tested, and the “dose-dependent thermal stabilisation call” value was inactive: 0.
BCL9 (UniProt O00512) was tested, and the “dose-dependent thermal stabilisation call” value was inactive: 0.
BOLA3 (UniProt Q53S33) was tested, and the “dose-dependent thermal stabilisation call” value was inactive: 0.
In the case of ATP13A1 (UniProt Q9HD20), the “dose-dependent thermal stabilisation call” value is reported as inactive: 0.
In the case of BCL2L11 (UniProt O43521), the “dose-dependent thermal stabilisation call” value is reported as inactive: 0.
For C11ORF57 (UniProt Q6ZUT1), the “dose-dependent thermal stabilisation call” value was inactive: 0.
For ATP2A3 (UniProt Q93084), the “dose-dependent thermal stabilisation call” value was inactive: 0.
With B3GNT2 (UniProt Q9NY97) the “dose-dependent thermal stabilisation call” value was inactive: 0.
With ATXN2 (UniProt Q99700) the “dose-dependent thermal stabilisation call” value was inactive: 0.
C14ORF2 (UniProt P56378) was tested, and the “dose-dependent thermal stabilisation call” value was inactive: 0.
BTD (UniProt P43251) was tested, and the “dose-dependent thermal stabilisation call” value was inactive: 0.
In the case of C11ORF59 (UniProt Q6IAA8), the “dose-dependent thermal stabilisation call” value is reported as inactive: 0.
For C19ORF43 (UniProt Q9BQ61), the “dose-dependent thermal stabilisation call” value was inactive: 0.
For BCL10 (UniProt O95999), the “dose-dependent thermal stabilisation call” value was inactive: 0.
C17ORF81 (UniProt Q8TE02) was tested, and the “dose-dependent thermal stabilisation call” value was inactive: 0.
With BEX1 (UniProt Q9HBH7) the “dose-dependent thermal stabilisation call” value was inactive: 0.
With ATP6V1H (UniProt Q9UI12) the “dose-dependent thermal stabilisation call” value was inactive: 0.
In the case of BRD3 (UniProt Q15059), the “dose-dependent thermal stabilisation call” value is reported as inactive: 0.
In the case of BBX (UniProt Q8WY36), the “dose-dependent thermal stabilisation call” value is reported as inactive: 0.
With C18ORF24 (UniProt Q96BD8) the “dose-dependent thermal stabilisation call” value was inactive: 0.
With BECN1 (UniProt Q14457) the “dose-dependent thermal stabilisation call” value was inactive: 0.
In the case of UniProt B4E0S5_HUMAN, the “dose-dependent thermal stabilisation call” value is reported as inactive: 0.
In the case of C16ORF53 (UniProt Q9BTK6), the “dose-dependent thermal stabilisation call” value is reported as inactive: 0.
C19ORF61 (UniProt Q9H0W8) was tested, and the “dose-dependent thermal stabilisation call” value was inactive: 0.
With BZW1 (UniProt Q7L1Q6) the “dose-dependent thermal stabilisation call” value was inactive: 0.
For BTF3 (UniProt P20290), the “dose-dependent thermal stabilisation call” value was inactive: 0.
For BRD8 (UniProt Q9H0E9), the “dose-dependent thermal stabilisation call” value was inactive: 0.
C17ORF37 (UniProt Q9BRT3) was tested, and the “dose-dependent thermal stabilisation call” value was inactive: 0.
In the case of C13ORF1 (UniProt Q5W111), the “dose-dependent thermal stabilisation call” value is reported as inactive: 0.
With C17ORF62 (UniProt Q9BQA9) the “dose-dependent thermal stabilisation call” value was inactive: 0.
For BXDC2 (UniProt Q8TDN6), the “dose-dependent thermal stabilisation call” value was inactive: 0.
In the case of BRIP1 (UniProt Q9BX63), the “dose-dependent thermal stabilisation call” value is reported as inactive: 0.
With B4GALT3 (UniProt O60512) the “dose-dependent thermal stabilisation call” value was inactive: 0.
In the case of ATP2A2 (UniProt P16615), the “dose-dependent thermal stabilisation call” value is reported as inactive: 0.
C16ORF84 (UniProt Q2VPK5) was tested, and the “dose-dependent thermal stabilisation call” value was inactive: 0.
C14ORF166 (UniProt Q9Y224) was tested, and the “dose-dependent thermal stabilisation call” value was inactive: 0.
For BAZ1B (UniProt Q9UIG0), the “dose-dependent thermal stabilisation call” value was inactive: 0.
ATP6V1F (UniProt Q16864) was tested, and the “dose-dependent thermal stabilisation call” value was inactive: 0.
With C17ORF59 (UniProt Q96GS4) the “dose-dependent thermal stabilisation call” value was inactive: 0.
In the case of C18ORF32 (UniProt Q8TCD1), the “dose-dependent thermal stabilisation call” value is reported as inactive: 0.
